Experimental data published in EP4663658A1.
Results are given in words; binding and its absence hold for the method and conditions named. Some entries that bind do so weakly or less than the wild type. Where a sequence is shown, tags or fusion partners need not be part of it.

Target: T1, CLL1 screening antigen CLL1-6×His (B918602) protein (UniProt Q5QGZ9)
T1 sequence (looked up): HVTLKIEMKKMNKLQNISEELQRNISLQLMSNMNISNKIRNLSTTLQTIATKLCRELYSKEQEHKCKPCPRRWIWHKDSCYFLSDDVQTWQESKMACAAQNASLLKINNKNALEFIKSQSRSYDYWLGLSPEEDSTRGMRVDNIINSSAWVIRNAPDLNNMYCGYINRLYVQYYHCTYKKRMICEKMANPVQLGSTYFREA
Experiment: positive clone from phage ELISA on coated screening antigen CLL1-6×His (OD450 > 0.5, confirmed by a second ELISA)

- binding: binds
B1: single-domain antibody CLL1-VHH-1 (VHH)
VHH: DVQLQESGGGLVQPGGSLRLSCAASGFTFGDYDMTWVRQAPGKGPEWVSAINSGGGSTYYADSVKGRFTISRDNAKNTLYLQMNSLKPEDTAVYYCATIDRLSTVVAGTYQPSDEYDYWGQGTQVTVSS
